{"source": "PubChem BioAssay AID1508600", "about": "(Functional Genomics Laboratory (NCATS/FGL), 2020)", "note": "The whole screen tested about 53,000 sequences, of which about 3,700 (7%) were called active.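 How the source made its calls: active means gene knockdowns whose robust z-score for IL-1 alpha signal is at least 2 or at most -2, so actives lie on both sides; inactive means the rest.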 This is one part of the list."}
{"test": "Components of the Cytosolic LPS Sensing Pathway: Gene Identification via Genome-wide siRNA Screen;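 further: robust z of the log signal after scaling to non-targeting control siRNA wells of the plate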", "settings": "RAW264.7 macrophages, IL-1a HTRF, actives lie on both sides, screened at 100 nM (by protocol), cells primed 5 h with Pam3CSK4 first", "method_in_brief": "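RAW264.7 mouse macrophages reverse-transfected with single siRNAs (100 nM final) for 48h, primed with Pam3CSK4 for 5 hours, then transfected with LipidA for 24 hour. Supernatant IL-1a read by HTRF; values normalized to negative-control median, log-transformed robust z-scores.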"}
{"sequence": "GGACAUGGCUCUAAAAUUUTT against Maco1", "z-score": "inactive: -1.1"}
{"sequence": "GGUUGAGGACGUAAAAAUCTT against Ccdc9b", "z-score": "inactive: -0.259"}
{"sequence": "GGAUCUUAGCAUGUCAACATT against Zfp330", "z-score": "inactive: -1.29"}
{"sequence": "CCUUUAUGGGACACUAUUUTT against Alb", "z-score": "inactive: 0.588"}
{"sequence": "GGCUUUCAGGUAUUAUAAGTT against Icmt", "z-score": "inactive: -0.0289"}
{"sequence": "CCUUUGAACCUCUAACUUUTT against Xpnpep1", "z-score": "active: 3.62"}
{"sequence": "GGAGCCAGCUCUCAAUGAATT against Psme1", "z-score": "inactive: 0.00366"}
{"sequence": "GCGCAAUAAUCAGACGGUUTT against Zhx2", "z-score": "inactive: -0.624"}
{"sequence": "GGCACAAAUAUUCUGUACUTT against Elapor2", "z-score": "inactive: 1.05"}
{"sequence": "GCACUUACCAGUAUGCGCUTT against Ppp1r16b", "z-score": "inactive: 0.339"}
{"sequence": "GGCGUAGGUUCUUUACUGGTT against Sgip1", "z-score": "inactive: 0.893"}
{"sequence": "CCACUGUGUGACAUUAAAGTT against Metap2", "z-score": "inactive: -0.799"}
{"sequence": "GGAAAGUGGUGCAUGACUATT against Sfxn1", "z-score": "inactive: -1.2"}
{"sequence": "GCUCUUACAUAGAACUUUGTT against Tpbg", "z-score": "inactive: -0.218"}
{"sequence": "GCAGUUGAAUAUCAGACUGTT against Obox5", "z-score": "inactive: -0.973"}
{"sequence": "GCUAGAUUCAAUCAGGUGUTT against 9530068E07Rik", "z-score": "inactive: -0.455"}
{"sequence": "GGAUUUGACCGGCUAAUACTT against Snrnp40", "z-score": "inactive: -0.776"}
{"sequence": "CCAGACUACGGUGCUAAGATT against Defb21", "z-score": "active: 2.49"}
{"sequence": "GCAGAUUUACCCUCUAUAATT against Peli2", "z-score": "inactive: -1.5"}
{"sequence": "GCUAGACCAGAAGAAAGUATT against Gid8", "z-score": "inactive: -1.65"}
{"sequence": "CCUUGUACAACAAUGGUGCTT against Git2", "z-score": "inactive: -1.01"}
{"sequence": "GGACUUUGUAUAUUGGUUUTT against Ets2", "z-score": "inactive: 1.73"}
{"sequence": "CCCAAAAUUGGUCAUGAUUTT against Dync1i1", "z-score": "inactive: -0.206"}
{"sequence": "GGAUGAGCUGAAUUUCCUATT against Clec2d", "z-score": "inactive: -1.17"}
{"sequence": "GGUGGAGUCUGAACUUAAUTT against Nfatc4", "z-score": "inactive: -0.0623"}
{"sequence": "GGCCUACUUGGAUGUGGACTT against Rtn3", "z-score": "inactive: 0.267"}
{"sequence": "GGACUGUCAGUGAUGACUCTT against Hes2", "z-score": "inactive: 0.854"}
{"sequence": "GGGUAAUUUUAGCAGCGAGTT against Btbd9", "z-score": "inactive: -0.822"}
{"sequence": "GGACAAGCAACUGAAUGAGTT against Macrod1", "z-score": "inactive: -0.411"}
{"sequence": "CCCACGAGGGAUAUAUCUGTT against Cd3d", "z-score": "inactive: -0.994"}
{"sequence": "GGAUGUCUUGCUUCACCGUTT against Dstyk", "z-score": "inactive: -0.674"}
{"sequence": "GGACUCCUACAGGAAACAATT against Kras", "z-score": "inactive: -1.11"}
{"sequence": "GCGCAGUGAAUCAAAUGUUTT against Asrgl1", "z-score": "inactive: 0.802"}
{"sequence": "GGGAAAAGUUUUAAAGAGCTT against Il31ra", "z-score": "inactive: 0.00281"}
{"sequence": "GGCAGAGAGUCUACAUAUGTT against Bcar3", "z-score": "inactive: -0.272"}
{"sequence": "GCAAUUUGCUCAUCUCUAATT against Dcc", "z-score": "inactive: 1.89"}
{"sequence": "GGUCACUCAGAAUAAUGCUTT against Lyrm4", "z-score": "inactive: 0.755"}
{"sequence": "GGCUAUAACCAGCCUCAUGTT against Tmem220", "z-score": "inactive: -1.37"}
{"sequence": "GAUCUUCACCAAUAAGUGUTT against Zfand2b", "z-score": "inactive: 0.367"}
{"sequence": "GGUUACUCCUUUUUCAAUGTT against Elf5", "z-score": "inactive: -0.636"}
{"sequence": "GGCCUUUGAUGACUUCAUCTT against Cacna1h", "z-score": "inactive: 0.904"}
{"sequence": "GGCCUGAAGAAAAAAACCCTT against Gas6", "z-score": "inactive: -0.55"}
{"sequence": "GCUCUUUAUCCUAAUCCGGTT against Mif4gd", "z-score": "inactive: 0.187"}
{"sequence": "GCCCAAGUAGCUCUACAGATT against Zbtb3", "z-score": "inactive: 1.39"}
{"sequence": "GAUGGUCACCCUGCUGAUUTT against Cmtm7", "z-score": "inactive: 1.48"}
{"sequence": "GGCCAGUAAGACAGAUUAUTT against Rabl3", "z-score": "inactive: 0.119"}
{"sequence": "GUUACUACAACAGCUACUATT against Krtap19-4", "z-score": "active: -2.37"}
{"sequence": "CCUUUGUUCUGCUCUGUUUTT against Tas2r126", "z-score": "inactive: -1.67"}
{"sequence": "GGAAAGCUCUUUGUGUCGGTT against Gramd3", "z-score": "inactive: -0.476"}
{"sequence": "CCUGAUUUGAAGAACAAAATT against Galnt11", "z-score": "inactive: 1.29"}
{"sequence": "GGCCCAUUUUGGUGUGCAUTT against Hyal3", "z-score": "active: -2"}
{"sequence": "GUACCUCAUGGGCAAGUUCTT against Foxq1", "z-score": "inactive: 0.579"}
{"sequence": "GGCCAGGACCUAAAUACAATT against Tmem231", "z-score": "active: 3.25"}
{"sequence": "GGUGUUCAAACUGAUUGGATT against Ckap5", "z-score": "inactive: 1.73"}
{"sequence": "GGAUCUGUUCAGCAAGUCUTT against Cpne6", "z-score": "inactive: 1.01"}
{"sequence": "GGAAUAGGUCUAGCUGUUGTT against Olfr593", "z-score": "inactive: 0.0556"}
{"sequence": "GGGACUAGACUUCUUCGGATT against Ddx52", "z-score": "inactive: 0.186"}
{"sequence": "GGUGUCCAACAAGCUCAAGTT against F8a", "z-score": "inactive: -0.337"}
{"sequence": "GCCACUGUGUGGAAUAAAUTT against Cblif", "z-score": "inactive: 0.727"}
{"sequence": "GCAAUAUGGCCUCAGUCUCTT against Trim60", "z-score": "inactive: -0.912"}
{"sequence": "UCCUUUCUAAUAUCCUCCATT against Olfr912", "z-score": "inactive: -0.971"}
{"sequence": "GCAUCAAGGCAACAAAGAUTT against Spats2l", "z-score": "inactive: 0.522"}
{"sequence": "GGCUAUGAUGUUCACAAAUTT against Cog4", "z-score": "inactive: -0.391"}
{"sequence": "GGGUUAAUGACUAAAAUGATT against H13", "z-score": "inactive: -1.07"}
{"sequence": "GGAUUUUACAUUUCUACACTT against Tmprss15", "z-score": "active: 2.14"}
{"sequence": "GGGACUUAGACACAGGAAGTT against Pcdhb15", "z-score": "inactive: -1.17"}
{"sequence": "CCCAAGGUGAACAUAAUCUTT against Stard7", "z-score": "inactive: -1.58"}
{"sequence": "GGGCCAAGAUACCAAGAGUTT against Spout1", "z-score": "active: -2.71"}
